Screening data, single-dose tests

Protein sequences, listed by entry. Tags and fused reporters are not part of them. Residues count along the entry.
UniProt P9WFT3, whole entry: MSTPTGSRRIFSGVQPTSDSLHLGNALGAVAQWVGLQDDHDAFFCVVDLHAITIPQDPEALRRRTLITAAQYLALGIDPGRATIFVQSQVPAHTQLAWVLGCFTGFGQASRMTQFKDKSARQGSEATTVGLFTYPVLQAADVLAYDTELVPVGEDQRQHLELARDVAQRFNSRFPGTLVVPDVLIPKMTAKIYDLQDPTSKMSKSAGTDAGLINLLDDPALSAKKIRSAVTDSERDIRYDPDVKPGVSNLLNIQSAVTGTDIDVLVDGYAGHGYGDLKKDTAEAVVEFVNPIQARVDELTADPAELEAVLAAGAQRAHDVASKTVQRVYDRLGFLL
UniProt Q4DA54, 1-478: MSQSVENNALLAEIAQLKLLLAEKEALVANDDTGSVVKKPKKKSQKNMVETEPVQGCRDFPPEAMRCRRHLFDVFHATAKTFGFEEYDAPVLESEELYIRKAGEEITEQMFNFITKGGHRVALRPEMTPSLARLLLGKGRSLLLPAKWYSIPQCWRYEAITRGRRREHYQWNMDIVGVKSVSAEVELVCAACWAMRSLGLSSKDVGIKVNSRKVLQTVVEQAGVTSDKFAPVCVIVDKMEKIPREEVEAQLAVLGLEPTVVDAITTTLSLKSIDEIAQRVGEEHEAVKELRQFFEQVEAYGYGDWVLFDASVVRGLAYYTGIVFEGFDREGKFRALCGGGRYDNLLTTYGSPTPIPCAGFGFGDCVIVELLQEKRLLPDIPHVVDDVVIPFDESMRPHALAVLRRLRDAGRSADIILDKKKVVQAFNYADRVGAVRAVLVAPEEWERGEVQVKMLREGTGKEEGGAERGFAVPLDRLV

MtTrpRS: 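Enzyme assay of tryptophanyl-tRNA synthetase; the read-out is not stated. Target: Tryptophan-tRNA ligase, Mycobacterium tuberculosis (UniProt P9WFT3). Tested at 10 µM. Direction is not recorded; retested compounds ran higher, which suggests that high means inhibition. Of about 65,000 compounds tested this way, about 64 (0.098%) reached 50% or more in at least one test.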
Leishmania in macrophages: 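Cell assay of Leishmania donovani living inside macrophages; the read-out is not stated. Concentration: 30 µM. Higher reads as stronger inhibition (inferred: compounds with an IC50 in retests scored well above the rest). About 69,000 compounds were tested under these conditions; 1.5% (about 1,000) showed 50% or more at least once.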
TcHisRS: 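Enzyme assay of histidyl-tRNA synthetase; the read-out is not stated. Target: Histidine-tRNA ligase, Trypanosoma cruzi CL Brener (UniProt Q4DA54). Tested at 30 µM. Direction is inferred from retests: higher values go with stronger inhibition. Size under these conditions: about 69,000 compounds, about 31 of them at 50% or above in at least one test.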

Results are given as percent effect.
The record does not define 0% and 100%; most values in the screen are far below 50% and negative numbers occur (in some assays of this library far below -100).
The compounds are a random part of those screened.
Two or more numbers in one place are separate tests of the same structure; such repeats can differ widely.
A dash means the value is not listed here; it may have been measured.

structure,MtTrpRS,Leishmania in macrophages,TcHisRS
COc1cc2nc(NCc3ccc(C)nc3)nc(N)c2cc1OC,3.905,62.6,2.597
CN(C)c1ccc(CNC(=O)NCCc2ccccn2)cn1,0.6152,10.59,-0.2865
O=C(NC1(c2nc(C3CC3)no2)CCCCC1)c1cccnc1O,-1.498,26.68,3.415
CCOC(=O)CCNC(=O)c1nc(OCC)ccc1Cl,-4.947,17.52,4.985
CC(C)c1nc(CN2CCCCC2)cs1,-2.424,9.088,-3.396
O=C(NCCc1cccc(O)c1)NC1CCN(c2ccccc2)C1=O (stereo not shown),-0.7105,14.85,4.564
CC(C)Cc1noc(CN2CCN(C(=O)c3ccccc3F)CC2)n1,14.02,-7.538,0
COc1ccnc(N2CCN(C(=O)c3ccc(Cl)o3)CC2)n1,-2.26,9.02,-6.105
CCc1nc(CN2CCCN(C(=O)CCSC)CC2)cs1,1.856,14.26,0.7634
O=c1c(CN2CCCCCC2)coc(O)c1CN1CCOCC1,0.4823,42.31,6.931
Cc1ncc(CNC(C)(C)CO)c2cc(C(=O)c3ccc(Br)cc3)oc12,3.099,44.76,15
COc1cc(CNC(C)Cn2cccn2)cc(OC)c1 (stereo not shown),-2.142,11.12,5.172
COCCN(CCC#N)S(=O)(=O)c1cc(F)ccc1F,0.4036,21.33,1.087
COc1ccc(CN(Cc2cnn(C)c2)CC(C)C)cn1,0.5789,9.494,-2.899
Cc1nc(Nc2ncccn2)cc(C2CCN(CC(C)C)C2)n1 (stereo not shown),-,2.022,-0.7491
CCN1CCn2c(C)cnc2C12CCN(C(=O)NCC(C)C)CC2.O=C(O)C(F)(F)F,-,3.288,-
Cn1cc(CN2C[C@H]3CCC[C@@H](CNc4nccn4C)[C@H]3C2)cn1,-2.481,-,2.532
Cn1cc(N2CC3(CCN(Cc4nccn4C)C3)CC2=O)cn1.O=C(O)C(F)(F)F (stereo not shown),-,58.91,-
CN(Cc1cccc(O)c1)CC1CCCN(CCc2ccc(Cl)cc2)C1 (stereo not shown),2.515,95.8,2.542
CC(C)CCNC(=O)c1cccnc1Oc1cccnc1,-1.175,18.49,6.186
CCn1cnnc1CNC(=O)NCC(O)c1ccc(OC)cc1 (stereo not shown),0.9338,20.35,1.136
CC(C)Cc1cc(NC(=O)c2cccnc2)n(C)n1,-0.1947,-11.33,2.299
CC1(C(=O)NC2CCCC2)CN(c2cnccn2)CCO1 (stereo not shown),-2.196,21.28,9.125
CCc1nc(C(=O)N2CCCC2)nn1-c1c(Cl)cccc1Cl,-3.948,-22.95,6.936
Cc1cc(N(C)C)nc(N2CCN(C(C)c3nc(C)no3)CC2)n1 (stereo not shown),11.15,-4.916,5.263
c1cncc(CN2CCn3cc(CN4CCCCC4)nc3C2)c1,-,23.54,2.513
CC(N(C)Cc1nc2c(cnn2C)c(=O)[nH]1)C(C)(C)C (stereo not shown),-6.706,-26.13,-0.3831
Cc1cc(C)nc(NC2CC(=O)N(C(C)(C)C)C2)n1 (stereo not shown),0.7009,16.59,4.433
O=S1(=O)COCCN1Cc1ccc(Cl)c(F)c1,1.935,19.69,1.667
O=C(O)c1ccc(OC2CCOCC2)cc1,-2.252,15.64,5.155
Cl.Cl.O=C(NCc1cncc2c1CCN(CC1CCOC1)C2)c1ccno1 (stereo not shown),-,-0.6901,-
Cc1ccoc1C(=O)N1CC[C@@H]2O[C@@H](C)C[C@H]2C1,5.221,-,0
O=C(CCCn1cncn1)NC1(c2ccccc2)CCC1,0.9114,20.29,-0.8368
Cc1cnn(C2CCCN(C(=O)c3c(C)oc4nc[nH]c(=O)c34)C2)c1 (stereo not shown),-0.7224,17.96,7.792
CN1CCN(C(=O)c2cnc3c(cnn3C3CCCC3)c2)CC1,-4.799,29.43,1.504
CCC1(CC)Cc2ccccc2-c2nc(NCCCO)[nH]c(=O)c21,4.567,40.4 and -6.805,1.22
c1ccc(Cc2nnc(CN3CCc4cncnc4C3)o2)cc1,1.838,20.38,18.37
CC(C)N1[C@H](CN2CCCC2)C[C@@H]2CN(Cc3ccoc3)CC[C@@H]21,-0.0969,-,4.908
Cc1csc(N2CCN(C(=O)c3cc(Cl)c[nH]3)CC2)n1,3.098,13.34,5.102
CCCS(=O)(=O)N1CCC2(CC1)CCn1c(-c3cnn(C)c3)cnc12.O=C(O)C(F)(F)F,-,-17.93,-
CCc1ncc(C(=O)N(C)C(C)c2ccc3c(c2)OCCO3)cn1 (stereo not shown),2.703,35.35,1.754
O=C(NCCN1CCOCC1)N1CCN(c2ccccc2)CC1,-0.729,3.698,-1.02
Cc1cc(C)n(-c2nc(C(=O)NCCS(=O)(=O)N3CCCCC3)cs2)n1,-6.131,16.96,4.215
CC(C)NC(=O)C1CN(Cc2ccc(F)cc2)CC12CCOCC2.O=C(O)C(F)(F)F (stereo not shown),-,44.53,-
COCCN1CCN(CC(=O)N(C)Cc2ccc(F)cc2)CC1C (stereo not shown),3.818,12.43,8.387
Cc1nc(C2CCN(c3ccccc3)CC2)no1,13.96,37.64,3.802
O=C(NC1CCCCC1)c1cc(Br)cnc1N1CCCCC1,-,28.65,11.36
c1cnn(CC2CN(CCCOc3ccc4c(c3)OCO4)CCO2)c1 (stereo not shown),-2.562,23.98,5.155
CSCCCN1CCn2nc(CNC(=O)N(C)C)cc2C1,2.391,-21.02,1.508
CC(C)CCN1CCCC12Cc1ccccc1CNC2=O (stereo not shown),-0.2593,8.99,8.876
CC(=O)N1CC2(CCN(c3ccc4ccccc4n3)CC2)CC1C(=O)O (stereo not shown),0.4831,0.5683,-0.8
O=c1[nH]c2cc3c(cc2cc1CN1CCCC1c1ccccn1)CCC3 (stereo not shown),-0.3137,-11.57,12.71
COCCO[C@@H]1CCN(C(=O)c2ccc(C)o2)[C@@H]1Cc1cccnc1.O=C(O)C(F)(F)F,-,4.922,-
Cc1ccc(CN2Cc3nccn3CC(CN(C)C)C2)s1.O=C(O)C(F)(F)F.O=C(O)C(F)(F)F (stereo not shown),-,24.07,-

For reference, 5 entries once more:

{"structure": "CCOC(=O)CCNC(=O)c1nc(OCC)ccc1Cl", "MtTrpRS": -4.947, "Leishmania in macrophages": 17.52, "TcHisRS": 4.985}
{"structure": "c1cncc(CN2CCn3cc(CN4CCCCC4)nc3C2)c1", "Leishmania in macrophages": 23.54, "TcHisRS": 2.513}
{"structure": "Cc1nc(Nc2ncccn2)cc(C2CCN(CC(C)C)C2)n1", "stereo": "stereo not shown", "Leishmania in macrophages": 2.022, "TcHisRS": -0.7491}
{"structure": "Cc1cc(N(C)C)nc(N2CCN(C(C)c3nc(C)no3)CC2)n1", "stereo": "stereo not shown", "MtTrpRS": 11.15, "Leishmania in macrophages": -4.916, "TcHisRS": 5.263}
{"structure": "CSCCCN1CCn2nc(CNC(=O)N(C)C)cc2C1", "MtTrpRS": 2.391, "Leishmania in macrophages": -21.02, "TcHisRS": 1.508}

From ChEMBL document CHEMBL3988442, “University of Dundee, Small-Polar-MMV Screening Library” (2021).